Test results published in patent publication US20200069552A1, “COSMETIC AND/OR DERMATOLOGICAL COMPOSITION, AND USES THEREOF IN THE COSMETIC FIELD AND IN THE ADJUVANT TREATMENT OF DERMATOLOGICAL PATHOLOGIES” (ISTITUTO GANASSINI S.P.A. DI RICERCHE BIOCHIMICHE, priority 2017, published 2020).

Assay: Organoleptic evaluation by a panel of 10 people
Parameters: species or system human
[1] = 1=very unpleasant, 2=unpleasant, 3=sufficient, 4=good, 5=excellent

Compound: CC(=O)Oc1c(C)c(C)c2c(c1C)CCC(C)(CCC[C@H](C)CCC[C@H](C)CCCC(C)C)O2 (some centres unmarked) [Comp A, Vitamin E acetate]
- Absorption, mean score [1]: 1.30
- Likeliness, mean score [1]: 1.30
- Spreadability, mean score [1]: 1.60
- Texture, mean score [1]: 1.70
- Tackiness, mean score (stickiness 1=excessive, 2=average, 3=poor, 4=absent): 1.30
